Data: the supplement of paper PMC10849652
The list shows a part of the results.

Chains of the proteins cited; added tags and fusions are not shown. Lines headed by an entry give the natural chain unless they say otherwise; changes in a name come on top.
UniProt Q9NTN9: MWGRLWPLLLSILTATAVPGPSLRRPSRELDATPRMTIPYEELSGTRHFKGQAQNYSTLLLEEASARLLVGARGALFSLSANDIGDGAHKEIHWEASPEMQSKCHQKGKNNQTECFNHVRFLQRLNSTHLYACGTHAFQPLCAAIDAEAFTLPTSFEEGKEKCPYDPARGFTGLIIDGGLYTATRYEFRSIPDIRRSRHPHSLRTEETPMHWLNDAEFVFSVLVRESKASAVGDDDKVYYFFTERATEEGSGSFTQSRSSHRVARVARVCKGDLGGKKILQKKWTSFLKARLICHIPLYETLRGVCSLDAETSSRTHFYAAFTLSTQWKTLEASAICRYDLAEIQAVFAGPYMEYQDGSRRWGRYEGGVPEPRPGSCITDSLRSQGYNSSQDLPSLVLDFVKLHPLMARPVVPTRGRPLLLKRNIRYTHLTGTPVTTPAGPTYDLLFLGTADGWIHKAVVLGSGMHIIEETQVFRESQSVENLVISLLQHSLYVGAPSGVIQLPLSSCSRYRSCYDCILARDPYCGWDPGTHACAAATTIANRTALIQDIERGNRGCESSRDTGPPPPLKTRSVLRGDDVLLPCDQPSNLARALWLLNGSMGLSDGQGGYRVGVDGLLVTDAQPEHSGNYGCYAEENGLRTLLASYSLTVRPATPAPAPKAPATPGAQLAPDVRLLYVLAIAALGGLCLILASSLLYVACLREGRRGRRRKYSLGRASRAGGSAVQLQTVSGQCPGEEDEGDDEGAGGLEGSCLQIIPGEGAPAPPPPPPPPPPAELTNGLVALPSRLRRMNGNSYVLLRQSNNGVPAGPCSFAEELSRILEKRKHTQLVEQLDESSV
UniProt Q9H4L4: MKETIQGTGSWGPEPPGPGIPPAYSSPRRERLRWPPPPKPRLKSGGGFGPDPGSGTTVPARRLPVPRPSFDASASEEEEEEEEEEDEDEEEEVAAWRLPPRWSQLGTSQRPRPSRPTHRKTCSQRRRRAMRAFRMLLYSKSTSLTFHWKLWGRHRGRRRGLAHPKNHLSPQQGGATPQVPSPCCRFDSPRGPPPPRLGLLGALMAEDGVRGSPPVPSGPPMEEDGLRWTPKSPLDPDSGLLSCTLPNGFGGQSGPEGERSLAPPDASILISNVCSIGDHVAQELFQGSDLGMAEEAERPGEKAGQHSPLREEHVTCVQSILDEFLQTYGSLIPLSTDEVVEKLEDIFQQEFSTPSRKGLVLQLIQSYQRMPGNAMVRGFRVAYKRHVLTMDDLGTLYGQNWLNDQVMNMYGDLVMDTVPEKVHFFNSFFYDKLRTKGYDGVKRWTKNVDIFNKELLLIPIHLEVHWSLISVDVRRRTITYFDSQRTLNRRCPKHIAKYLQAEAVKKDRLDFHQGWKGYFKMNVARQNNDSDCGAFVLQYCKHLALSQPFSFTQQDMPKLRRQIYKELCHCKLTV
UniProt Q9HAJ7: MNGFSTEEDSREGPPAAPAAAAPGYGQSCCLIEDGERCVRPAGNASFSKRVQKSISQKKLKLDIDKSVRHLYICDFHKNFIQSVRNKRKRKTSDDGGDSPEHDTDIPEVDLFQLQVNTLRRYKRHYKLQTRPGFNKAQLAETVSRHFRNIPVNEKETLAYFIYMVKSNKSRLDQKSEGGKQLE
UniProt Q9UPU9: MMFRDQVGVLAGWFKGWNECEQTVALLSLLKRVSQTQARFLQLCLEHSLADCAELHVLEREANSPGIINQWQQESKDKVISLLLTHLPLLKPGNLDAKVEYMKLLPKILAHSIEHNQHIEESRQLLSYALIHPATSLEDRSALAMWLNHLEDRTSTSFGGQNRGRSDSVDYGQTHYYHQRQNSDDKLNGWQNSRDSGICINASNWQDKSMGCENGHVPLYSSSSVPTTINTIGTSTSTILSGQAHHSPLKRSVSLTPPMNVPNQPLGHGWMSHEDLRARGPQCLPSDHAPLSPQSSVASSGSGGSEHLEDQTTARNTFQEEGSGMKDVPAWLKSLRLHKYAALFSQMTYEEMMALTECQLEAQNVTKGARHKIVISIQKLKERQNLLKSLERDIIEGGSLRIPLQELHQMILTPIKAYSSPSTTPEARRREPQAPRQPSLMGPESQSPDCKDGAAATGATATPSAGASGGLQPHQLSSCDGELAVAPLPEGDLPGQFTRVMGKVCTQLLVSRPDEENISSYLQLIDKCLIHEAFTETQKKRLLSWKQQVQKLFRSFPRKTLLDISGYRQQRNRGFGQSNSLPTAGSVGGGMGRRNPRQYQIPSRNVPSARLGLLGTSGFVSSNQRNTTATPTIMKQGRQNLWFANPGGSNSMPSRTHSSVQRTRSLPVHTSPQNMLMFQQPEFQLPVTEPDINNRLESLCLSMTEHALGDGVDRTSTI
UniProt Q9H0E3: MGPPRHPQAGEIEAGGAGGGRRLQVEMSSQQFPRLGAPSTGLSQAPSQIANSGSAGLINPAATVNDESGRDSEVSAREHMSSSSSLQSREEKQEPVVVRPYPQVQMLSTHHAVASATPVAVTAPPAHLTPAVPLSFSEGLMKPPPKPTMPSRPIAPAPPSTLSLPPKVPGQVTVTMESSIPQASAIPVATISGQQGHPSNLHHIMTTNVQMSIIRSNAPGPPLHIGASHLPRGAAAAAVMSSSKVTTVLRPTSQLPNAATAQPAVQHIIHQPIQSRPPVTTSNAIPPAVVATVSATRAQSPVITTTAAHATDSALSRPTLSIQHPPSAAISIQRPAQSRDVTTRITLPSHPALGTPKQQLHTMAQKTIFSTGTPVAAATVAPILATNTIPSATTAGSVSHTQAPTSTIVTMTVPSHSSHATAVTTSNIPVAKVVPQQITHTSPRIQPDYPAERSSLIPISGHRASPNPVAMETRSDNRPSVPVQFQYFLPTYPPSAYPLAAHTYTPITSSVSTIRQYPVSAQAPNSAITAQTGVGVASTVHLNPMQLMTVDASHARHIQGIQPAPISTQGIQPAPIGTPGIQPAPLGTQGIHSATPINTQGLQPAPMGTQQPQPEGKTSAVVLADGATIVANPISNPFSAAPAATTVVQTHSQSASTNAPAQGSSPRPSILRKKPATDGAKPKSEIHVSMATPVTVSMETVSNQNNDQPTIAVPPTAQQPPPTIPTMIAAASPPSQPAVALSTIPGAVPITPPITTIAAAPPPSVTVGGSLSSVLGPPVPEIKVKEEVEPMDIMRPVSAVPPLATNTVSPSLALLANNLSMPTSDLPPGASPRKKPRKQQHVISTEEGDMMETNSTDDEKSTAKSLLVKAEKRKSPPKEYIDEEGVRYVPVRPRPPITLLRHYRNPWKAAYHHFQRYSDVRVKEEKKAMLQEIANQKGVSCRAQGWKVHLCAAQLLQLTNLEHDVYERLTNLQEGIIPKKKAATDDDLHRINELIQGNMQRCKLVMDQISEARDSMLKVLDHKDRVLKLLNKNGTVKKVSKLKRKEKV
UniProt O75056, whole entry, looked up: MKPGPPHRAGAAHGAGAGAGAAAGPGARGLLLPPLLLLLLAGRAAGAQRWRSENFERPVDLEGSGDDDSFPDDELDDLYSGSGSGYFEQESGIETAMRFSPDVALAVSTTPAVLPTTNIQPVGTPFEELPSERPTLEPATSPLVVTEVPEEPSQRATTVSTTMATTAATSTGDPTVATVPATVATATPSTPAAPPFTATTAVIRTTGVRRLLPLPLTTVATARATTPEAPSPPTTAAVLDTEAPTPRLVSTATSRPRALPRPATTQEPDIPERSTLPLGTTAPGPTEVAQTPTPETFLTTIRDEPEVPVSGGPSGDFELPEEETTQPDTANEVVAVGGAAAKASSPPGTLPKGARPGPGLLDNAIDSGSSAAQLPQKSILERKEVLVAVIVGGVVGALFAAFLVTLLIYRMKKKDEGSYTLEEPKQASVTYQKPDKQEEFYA
UniProt Q9C0D9, whole entry, looked up: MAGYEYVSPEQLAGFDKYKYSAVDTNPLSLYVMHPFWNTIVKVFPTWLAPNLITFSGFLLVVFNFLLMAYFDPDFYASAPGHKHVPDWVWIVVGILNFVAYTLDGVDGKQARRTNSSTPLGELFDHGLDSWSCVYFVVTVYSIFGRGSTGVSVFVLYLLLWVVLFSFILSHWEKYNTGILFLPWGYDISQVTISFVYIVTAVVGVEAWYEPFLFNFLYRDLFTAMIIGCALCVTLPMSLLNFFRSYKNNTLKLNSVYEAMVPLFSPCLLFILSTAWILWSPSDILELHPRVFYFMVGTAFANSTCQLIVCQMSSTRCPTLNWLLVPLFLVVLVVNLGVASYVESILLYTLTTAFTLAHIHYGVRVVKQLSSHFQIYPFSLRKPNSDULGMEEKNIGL
UniProt Q8WWX9, whole entry, looked up: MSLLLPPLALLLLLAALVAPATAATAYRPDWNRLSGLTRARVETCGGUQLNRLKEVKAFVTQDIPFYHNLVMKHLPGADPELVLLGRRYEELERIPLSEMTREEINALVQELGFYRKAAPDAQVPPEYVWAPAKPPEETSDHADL
UniProt Q99470: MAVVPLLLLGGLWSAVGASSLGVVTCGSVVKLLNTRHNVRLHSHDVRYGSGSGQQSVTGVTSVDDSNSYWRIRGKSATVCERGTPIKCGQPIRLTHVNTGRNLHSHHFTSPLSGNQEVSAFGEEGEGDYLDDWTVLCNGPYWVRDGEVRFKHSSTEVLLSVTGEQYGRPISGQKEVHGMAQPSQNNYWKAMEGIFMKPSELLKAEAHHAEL
UniProt O75845: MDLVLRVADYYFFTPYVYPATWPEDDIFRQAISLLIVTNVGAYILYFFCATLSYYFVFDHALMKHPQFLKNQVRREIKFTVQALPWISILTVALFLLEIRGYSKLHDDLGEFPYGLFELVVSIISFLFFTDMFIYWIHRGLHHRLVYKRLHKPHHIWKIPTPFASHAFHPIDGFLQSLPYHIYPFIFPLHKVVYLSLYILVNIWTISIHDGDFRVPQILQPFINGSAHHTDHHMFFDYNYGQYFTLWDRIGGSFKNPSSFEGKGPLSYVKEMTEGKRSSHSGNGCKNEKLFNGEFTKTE
UniProt P63302, whole entry, looked up: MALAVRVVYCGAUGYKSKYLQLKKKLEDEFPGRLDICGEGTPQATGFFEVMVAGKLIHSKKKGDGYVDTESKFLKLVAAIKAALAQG
UniProt P57086: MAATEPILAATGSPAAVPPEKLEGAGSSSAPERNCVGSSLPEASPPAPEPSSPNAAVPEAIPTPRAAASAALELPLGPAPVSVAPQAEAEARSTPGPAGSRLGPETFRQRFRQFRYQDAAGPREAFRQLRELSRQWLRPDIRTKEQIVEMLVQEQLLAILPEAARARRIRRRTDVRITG
UniProt Q5VUM1: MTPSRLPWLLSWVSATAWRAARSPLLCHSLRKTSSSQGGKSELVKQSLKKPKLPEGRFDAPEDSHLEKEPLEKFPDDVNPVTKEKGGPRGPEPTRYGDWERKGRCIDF
UniProt Q9UIL1: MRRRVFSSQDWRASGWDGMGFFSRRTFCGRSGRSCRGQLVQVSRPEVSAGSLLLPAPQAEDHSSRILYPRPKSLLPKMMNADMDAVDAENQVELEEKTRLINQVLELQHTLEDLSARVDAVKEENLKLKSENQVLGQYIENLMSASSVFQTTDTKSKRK

Compound: NC(=O)Nc1cc(-c2cccc(F)c2)sc1C(=O)N[C@H]1CCCNC1
Experiment: log2 fold change, soluble protein after heating vs DMSO (PISA); higher = thermal stabilisation; K562 lysate, 10 uM; active = over 0.2 and 3.5 SD of the protein, either way, in both replicates (recomputed)
Summary of the method: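 Quantification was by TMTpro 16plex LC-MS/MS with equalised channel sums, applied to the supernatant after 21,000xg for 90 min. Samples were crude K562 extract at 1 mg/mL protein in PBS pH 7.4 with 1 mM MgCl2, treated with 10 μM compound for 30 min, heated for 3 min across 48°C-58°C, pooled and brought to 0.5% NP-40 at 4°C. Values are log-two fold changes in thermal stability relative to solvent controls, from duplicates.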

log2 fold change, inactive:
SEMA4G isoform 2 (UniProt Q9NTN9) 0.085
SENP3 (UniProt Q9H4L4) 0.102
SAP30L (UniProt Q9HAJ7) -0.237
SAMD4A (UniProt Q9UPU9) 0.058
SAP130 isoform 3 (UniProt Q9H0E3) 0.076
SDC3 (UniProt O75056) -0.024
SELENOI (UniProt Q9C0D9) 0.113
SELENOM (UniProt Q8WWX9) 0.008
SDF2 (UniProt Q99470) -0.03
SC5D (UniProt O75845) 0.017
SELENOW (UniProt P63302) -0.051
SCAND1 (UniProt P57086) -0.12
SDCCAG8 (UniProt S4R323) 0.071
SDHAF4 (UniProt Q5VUM1) -0.085
SCOC (UniProt Q9UIL1) -0.025

For reference, part of the list above:
log2 fold change, inactive:
SELENOW (UniProt P63302) -0.051
SCAND1 (UniProt P57086) -0.12
